Results as given in patent publication US10046020B2, “Inflammation inhibiting compounds” (priority 2001, dated 2018).
Part of at least one peptide drawing is inferred or uncertain, most often the ends. Square brackets hold non-standard residues; d marks the D form. Peptide text beside a SMILES is read from it.

System: Balb/C mice
Assay: CHS sensitization and tolerance after i.v. injection of αMSH or peptides (DNFB)
Details: injected i.v. before the first sensitization only

## C[C@@H](O)[C@H](NC(=O)[C@H]1CCCN1C(=O)[C@@H](N)CCCCN)C(=O)O [KdPT, (L)Lys-(D)Pro-(L)Thr] (H-Lys-[dP]-Thr-OH)
  auricular swelling response after second sensitization and hapten exposure (tolerance to DNFB): inhibited the auricular swelling response very greatly
